Experimental data taken from patent publication US20180230232A1 (VIB VZW, published 2018).
Results are given in words; binding and its absence hold for the method and conditions named. Some entries that bind do so weakly or less than the wild type.

By UniProt entry, the sequences of proteins in these tests, tags left out. Residues count along the entry.
UniProt P56818, residues 46-457: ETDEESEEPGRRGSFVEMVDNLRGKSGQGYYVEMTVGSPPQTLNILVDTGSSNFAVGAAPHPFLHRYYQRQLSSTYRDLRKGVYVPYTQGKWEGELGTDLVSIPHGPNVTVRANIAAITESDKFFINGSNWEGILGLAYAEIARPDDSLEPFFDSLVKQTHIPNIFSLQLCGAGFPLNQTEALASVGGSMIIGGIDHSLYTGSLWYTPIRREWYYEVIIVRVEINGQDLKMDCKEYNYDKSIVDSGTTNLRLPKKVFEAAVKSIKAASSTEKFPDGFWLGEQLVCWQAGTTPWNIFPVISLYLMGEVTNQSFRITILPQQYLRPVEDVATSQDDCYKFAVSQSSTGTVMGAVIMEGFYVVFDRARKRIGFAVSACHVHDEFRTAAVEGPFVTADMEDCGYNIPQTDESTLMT
UniProt P56817, residues 22-457: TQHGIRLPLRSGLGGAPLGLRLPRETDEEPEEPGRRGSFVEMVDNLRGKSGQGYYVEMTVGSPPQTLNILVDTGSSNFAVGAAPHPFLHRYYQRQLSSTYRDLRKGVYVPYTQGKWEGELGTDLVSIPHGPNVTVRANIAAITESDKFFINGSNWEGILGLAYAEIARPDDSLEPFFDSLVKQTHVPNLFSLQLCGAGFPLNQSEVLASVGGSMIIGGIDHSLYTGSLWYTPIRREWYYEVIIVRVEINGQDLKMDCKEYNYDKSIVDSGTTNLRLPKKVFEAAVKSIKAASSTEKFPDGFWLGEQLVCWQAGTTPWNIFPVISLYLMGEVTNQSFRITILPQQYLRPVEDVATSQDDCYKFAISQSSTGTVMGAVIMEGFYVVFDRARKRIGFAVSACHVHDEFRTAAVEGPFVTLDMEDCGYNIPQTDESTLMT

B1: NANOBODY 10C4 (Nb_10C4) (VHH)
VHH: QVQLQESGGGSVQAGGFLRLSCAASGYTYSTCSMAWYRQAPGKERELVSSIRNDGSTAYADSVKGRFTISQDNAKNTVYLQMNSLKPEDTAMYYCNIRIGVGPGGTCSIYAPYWGEGTQVTVSS
notes: from the dromedary libraries; purified from pHEN6; not shown: C-terminal his6-tag (pHEN6)
B2: NANOBODY 4A2 (Nb_4A2) (VHH)
VHH: QVQLQESGGGLVQPGGSLRLSCAASGFTFETQYMTWVRQAPGKGPEYVSSINSGGTIKYYANSSVKGRFTISRDNAKNTLYLQMNNLRPEDTAIYYCQLGQWAGVGAASSRGQGTQVTVSS
notes: from the llama library; purified from pHEN6; not shown: C-terminal his6-tag (pHEN6)
B3: NANOBODY 1B3 (Nb_1B3) (VHH, not shown: small tags and cut ends)
VHH: QVQLQESGGGSVQAGGSLRLSCAASEYTDSTYYMAWFRQAPGKERGGVATLASRYDTTYYADSVKGRFTISQDRAKNTVYLQMNSLKPEDTGIYYCAASPRRPGFFPLDPSQYNYWGQGTQVTVSS
B4: NANOBODY B9 (Nb_B9) (VHH)
VHH: DVQLQESGGGSVQAGGSLRLSCAASEYTYGYCSMGWYRQAPGKERELVSTITSDGSTSYVDSVKGRFTISQDNAKNTVYLQMNSLKPEDTAKYYCYTKTCANKLGAKFISWGQGTQVTVSS
notes: dromedary VHH; his-tagged from E. coli; HA-tagged periplasmic extract in the ELISA screen; also called VHH B9; not shown: C-terminal his6-tag (pHEN6)

What was measured:
[1] = biological target: mouse BACE1 (mouse) (UniProt P56818); test: SPR (Biacore), pH 7.0 and pH 4.5
[2] = biological target: human BACE1 ectodomain (human) (UniProt P56817); test: phage ELISA and periplasmic extract ELISA on coated BACE1 ectodomain

Binder	binding [1]	binding [2]
B1	binds	binds
B2	binds	binds
B3	–	binds
B4	binds	–
